# These are yes or no findings as the source states them, for the method shown. In cells and extracts the contact can be indirect. Binding can be weak; no strength is given.
# The chains behind the UniProt entries cited, without tags or fusion partners. Where a name states a change or a piece, a line headed by the entry shows the natural chain unless it says otherwise.
# UniProt Q02248: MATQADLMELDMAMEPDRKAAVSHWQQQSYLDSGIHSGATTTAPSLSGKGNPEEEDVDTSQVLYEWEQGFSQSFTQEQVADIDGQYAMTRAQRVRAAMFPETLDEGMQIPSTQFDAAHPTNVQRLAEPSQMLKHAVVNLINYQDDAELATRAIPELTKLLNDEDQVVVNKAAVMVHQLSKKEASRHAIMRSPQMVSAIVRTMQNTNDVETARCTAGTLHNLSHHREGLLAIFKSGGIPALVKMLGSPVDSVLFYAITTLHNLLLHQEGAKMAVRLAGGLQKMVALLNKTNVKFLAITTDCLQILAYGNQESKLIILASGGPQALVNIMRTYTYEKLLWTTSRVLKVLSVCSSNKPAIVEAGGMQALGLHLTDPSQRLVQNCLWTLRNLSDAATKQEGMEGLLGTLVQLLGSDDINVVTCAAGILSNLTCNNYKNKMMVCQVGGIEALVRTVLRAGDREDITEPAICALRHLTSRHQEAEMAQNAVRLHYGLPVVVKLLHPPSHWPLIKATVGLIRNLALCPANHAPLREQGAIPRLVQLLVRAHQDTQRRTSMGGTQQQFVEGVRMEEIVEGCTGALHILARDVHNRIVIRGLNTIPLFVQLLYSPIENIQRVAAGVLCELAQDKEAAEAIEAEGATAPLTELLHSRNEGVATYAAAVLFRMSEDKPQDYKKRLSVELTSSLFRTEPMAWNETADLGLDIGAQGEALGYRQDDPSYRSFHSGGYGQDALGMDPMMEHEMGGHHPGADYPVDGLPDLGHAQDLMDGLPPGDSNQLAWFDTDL
# UniProt P18760: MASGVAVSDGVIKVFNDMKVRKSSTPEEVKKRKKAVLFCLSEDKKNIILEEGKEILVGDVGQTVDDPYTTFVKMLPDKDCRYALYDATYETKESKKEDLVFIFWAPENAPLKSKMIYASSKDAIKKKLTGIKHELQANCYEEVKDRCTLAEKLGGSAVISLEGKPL
# Biological target: β-catenin (endogenous, β-catenin^Δ(ex3)/+ MEFs) (mouse (endogenous in MEFs)) (UniProt Q02248)
# Assay: co-IP; endogenous proteins in β-catenin^Δ(ex3)/+ MEFs
substance,measurement,value
"Cofilin 1 (endogenous, β-catenin^Δ(ex3)/+ MEFs) (from UniProt P18760 1-166)",binding,binds

# From publication PMC11980659
